Source: patent US20200283521A1
These are yes or no findings as the source states them, for the method shown. Some results given as binding are weak or reduced against the parent protein; the word gives no strength.

Sequences of proteins named here, by UniProt entry; tags and fusion partners are left off. A change or cut given only in a name is not applied to a line headed by its entry. A line that says so, or that is headed by a name, gives the form on record, which may keep a tag or linker.
human C-KIT short isoform (NM_001093772) on HEK293 cells (P10721, form named): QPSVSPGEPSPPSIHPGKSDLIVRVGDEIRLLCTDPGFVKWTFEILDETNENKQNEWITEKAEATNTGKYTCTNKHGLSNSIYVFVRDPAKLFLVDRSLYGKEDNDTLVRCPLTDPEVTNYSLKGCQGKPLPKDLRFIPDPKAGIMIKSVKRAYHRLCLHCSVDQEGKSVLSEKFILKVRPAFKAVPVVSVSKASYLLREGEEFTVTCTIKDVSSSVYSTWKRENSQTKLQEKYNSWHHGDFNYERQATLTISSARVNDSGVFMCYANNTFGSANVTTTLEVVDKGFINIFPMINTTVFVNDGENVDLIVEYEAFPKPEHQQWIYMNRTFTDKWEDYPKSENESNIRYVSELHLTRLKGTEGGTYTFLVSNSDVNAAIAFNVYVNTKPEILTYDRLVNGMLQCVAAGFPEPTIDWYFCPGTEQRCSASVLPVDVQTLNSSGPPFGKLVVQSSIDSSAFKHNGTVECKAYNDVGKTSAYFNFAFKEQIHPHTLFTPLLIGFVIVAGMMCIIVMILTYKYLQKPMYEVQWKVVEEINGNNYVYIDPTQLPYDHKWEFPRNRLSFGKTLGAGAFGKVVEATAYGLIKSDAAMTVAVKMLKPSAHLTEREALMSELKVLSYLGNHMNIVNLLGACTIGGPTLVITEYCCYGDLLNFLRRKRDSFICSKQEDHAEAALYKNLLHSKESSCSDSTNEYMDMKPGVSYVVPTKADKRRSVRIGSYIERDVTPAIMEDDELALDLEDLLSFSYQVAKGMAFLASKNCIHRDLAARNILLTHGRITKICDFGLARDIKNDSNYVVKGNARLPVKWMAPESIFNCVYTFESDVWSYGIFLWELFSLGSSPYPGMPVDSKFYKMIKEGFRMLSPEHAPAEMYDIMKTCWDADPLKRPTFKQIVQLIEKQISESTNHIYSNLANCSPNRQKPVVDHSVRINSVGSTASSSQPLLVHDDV

Tests used:
[1] = biological target: human C-KIT short isoform (NM_001093772) on HEK293 cells (human) (UniProt P10721); test: cell array, HEK293
[2] = biological target: human C-KIT canonical isoform (NM_000222.2) on HEK293 cells (human) (UniProt P10721); test: cell array, HEK293
[3] = biological target: human C-KIT-Fc (human) (UniProt P10721); test: direct ELISA
[4] = biological target: human C-KIT-Fc (human) (UniProt P10721); test: direct titration ELISA on coated C-KIT-Fc, IgG1 format
[5] = biological target: human C-KIT canonical isoform (NM_000222.2) on HEK293 cells (human) (UniProt P10721); test: cell array, HEK293 re-array
[6] = biological target: human C-KIT, full length, on cells (human) (UniProt P10721); test: flow cytometry, CHO-K1 transfectants
[7] = biological target: human C-KIT-Fc (human) (UniProt P10721); test: direct ELISA at 1 µg/ml
[8] = biological target: human C-KIT, full length, on cells (human) (UniProt P10721); test: flow cytometry, C-KIT-transfected CHO-K1 cells, IgG1 format
[9] = biological target: human C-KIT-Fc (human) (UniProt P10721); test: HTRF competition vs labelled h37M IgG
[10] = biological target: human C-KIT-Fc (human) (UniProt P10721); test: HTRF epitope competition in solution; competitor IgG1-3M titrated against terbium-labelled h37M IgG1 on biotinylated human C-KIT-Fc
[11] = biological target: human C-KIT-Fc (human) (UniProt P10721); test: HTRF epitope competition in solution; unlabelled h37M IgG1-3M titrated against terbium-labelled h37M IgG1 on biotinylated human C-KIT-Fc
[12] = biological target: human C-KIT-Fc (human) (UniProt P10721); test: HTRF competition on human C-KIT-Fc against terbium-labelled h37M IgG1

B1: humanized h37M, human IgG1 (antibody, V domains shown)
VH: QVQLVQSGAEVKKPGASVKLSCKASGYTFTDYYINWVRQAPGKGLEWIARIYPGSGNTYYNEKFKGRATLTADKSTSTAYMQLSSLRSEDTAVYFCARGVYYFDYWGQGTTVTVSS
VL: DIVMTQSPSSLSASVGDRVTITCKASQNVRTNVAWYQQKPGKAPKALIYSASYRYSGVPDRFTGSGSGTDFTLTISSLQPEDFADYFCQQYNSYPRTFGGGTKVEIK
binding [1]: binds | binding [2]: binds | binding [3]: binds | binding [4]: binds | binding [5]: binds | binding [6]: binds | binding [7]: binds | binding [8]: binds

B2: MH5.22 (antibody, IgG1, V domains shown)
VH: QVQLVQSGAEVKKPGASVKVSCKASGYTFTDFYMNWVRQAPGQGLEWMGRIYPASGNTYYAQKFQGRVTMTRDTSTSTVYMELSSLRSEDTAVYYCARGVWYYDYWGQGTLVTVSS
VL: DIQMTQSPSSLSASVGDRVTITCRASQGIRTNLAWFQQKPGKAPKSLIYAASSLQSGVPSRFSGSGSGTDFTLTISSLQPEDFATYYCQQYANYPRTFGGGTKVEIK
binding [3]: binds | binding [6]: binds | binding [7]: binds | binding [8]: binds

B3: MH1, IgG1-3M format (antibody, V domains shown)
VH: QVQLVQSGAEVKKPGASVKVSCKASGYTFTDYYMNWVRQAPGQGLEWMGRIYPGSGNTYYAQKFQGRVTMTRDTSTSTVYMELSSLRSEDTAVYYCARGVYYYDYWGQGTLVTVSS
VL: DIQMTQSPSSLSASVGDRVTITCRASQGIRTNLAWFQQKPGKAPKSLIYAASSLQSGVPSRFSGSGSGTDFTLTISSLQPEDFATYYCQQYNSYPRTFGGGTKVEIK
binding [9]: binds | binding [10]: binds

B4: MH5, IgG1-3M format (antibody, V domains shown)
VH: QVQLVQSGAEVKKPGASVKVSCKASGYTFTDYYMNWVRQAPGQGLEWMGRIYPGSGNTYYAQKFQGRVTMTRDTSTSTVYMELSSLRSEDTAVYYCARGVYYYDYWGQGTLVTVSS
VL: DIQMTQSPSSLSASVGDRVTITCRASQGIRTNLAWFQQKPGKAPKSLIYSASSLQSGVPSRFSGSGSGTDFTLTISSLQPEDFATYYCQQYANYPRTFGGGTKVEIK
binding [9]: binds | binding [10]: binds

B5: h37M-IgG1-3M (antibody, V domains shown)
VH: QVQLVQSGAEVKKPGASVKLSCKASGYTFTDYYINWVRQAPGKGLEWIARIYPGSGNTYYNEKFKGRATLTADKSTSTAYMQLSSLRSEDTAVYFCARGVYYFDYWGQGTTVTVSS
VL: DIVMTQSPSSLSASVGDRVTITCKASQNVRTNVAWYQQKPGKAPKALIYSASYRYSGVPDRFTGSGSGTDFTLTISSLQPEDFADYFCQQYNSYPRTFGGGTKVEIK
binding [11]: binds

B6: C-A5 (antibody, IgG1, V domains shown)
VH: QVQLVQSGAEVKKPGASVKVSCKASGYTFTDYYMNWVRQAPGQGLEWMGRIYPGSGNTYYAQKFQGRVTMTRDTSTSTVYMELSSLRSEDTAVYYCARGVYHFDYWGQGTLVTVSS
VL: DIQMTQSPSSLSASVGDRVTITCRASQGVRNNVAWFQQKPGKAPKSLIYAASYLQSGVPSRFSGSGSGTDFTLTISSLQPEDFATYYCQQYNSYPRTFGGGTKVEIK
binding [3]: binds | binding [12]: binds | binding [8]: binds

B7: D-D5 (antibody, IgG1, V domains shown)
VH: QVQLVQSGAEVKKPGASVKVSCKASGYTFTDYYMNWVRQAPGQGLEWMGRIYPGSGNTYYAQKFQGRVTMTRDTSTSTVYMELSSLRSEDTAVYYCARGVYYYDYWGQGTLVTVSS
VL: DIQMTQSPSSLSASVGDRVTITCRASQGVRTNLAWFQQKPGKAPKSLIYSASSLQSGVPSRFSGSGSGTDFTLTISSLQPEDFATYYCQQYNSYPRTFGGGTKVEIK
binding [3]: binds | binding [12]: binds | binding [8]: binds

B8: F-B11 (antibody, IgG1, V domains shown)
VH: QVQLVQSGAEVKKPGASVKVSCKASGYTFTDYYMNWVRQAPGQGLEWMGRIYPGSGNTYYAQKFQGRVTMTRDTSTSTVYMELSSLRSEDTAVYYCARGVYYLDYWGQGTLVTVSS
VL: DIQMTQSPSSLSASVGDRVTITCRASQGIRTNLAWFQQKPGKAPKSLIYAASYRQSGVPSRFSGSGSGTDFTLTISSLQPEDFATYYCQQYNSYPRTFGGGTKVEIK
binding [3]: binds | binding [12]: binds | binding [8]: binds

B9: D-D9 (antibody, IgG1, V domains shown)
VH: QVQLVQSGAEVKKPGASVKVSCKASGYTFTDYYMNWVRQAPGQGLEWMGRIYPGSGNTYYAQKFQGRVTMTRDTSTSTVYMELSSLRSEDTAVYYCARGVYYLDYWGQGTLVTVSS
VL: DIQMTQSPSSLSASVGDRVTITCRASQGVRTNVAWFQQKPGKAPKSLIYSASSLQSGVPSRFSGSGSGTDFTLTISSLQPEDFATYYCQQYNSYPRTFGGGTKVEIK
binding [3]: binds | binding [12]: binds | binding [8]: binds

B10: E-G7 (antibody, IgG1, V domains shown)
VH: QVQLVQSGAEVKKPGASVKVSCKASGYTFTDYYMNWVRQAPGQGLEWMGRIYPGSGNTYYAQKFQGRVTMTRDTSTSTVYMELSSLRSEDTAVYYCARGVYYFDEWGQGTLVTVSS
VL: DIQMTQSPSSLSASVGDRVTITCRASQGVRTNVAWFQQKPGKAPKSLIYSASSRQSGVPSRFSGSGSGTDFTLTISSLQPEDFATYYCQQYNSYPRTFGGGTKVEIK
binding [3]: binds | binding [12]: binds | binding [8]: binds

B11: MH14 (antibody, IgG1, V domains shown)
VH: QVQLVQSGAEVKKPGASVKVSCKASGYTFTDYYMNWVRQAPGQGLEWMGRIYPGSGNTYYAQKFQGRVTMTRDTSTSTVYMELSSLRSEDTAVYYCARGVYYLDYWGQGTLVTVSS
VL: DIQMTQSPSSLSASVGDRVTITCRASQGVRTNLAWFQQKPGKAPKSLIYAASSLQSGVPSRFSGSGSGTDFTLTISSLQPEDFATYYCQQYNSYPRTFGGGTKVEIK
binding [3]: binds | binding [12]: binds | binding [8]: binds

B12: MH15 (antibody, IgG1, V domains shown)
VH: QVQLVQSGAEVKKPGASVKVSCKASGYTFTDYYMNWVRQAPGQGLEWMGRIYPGSGNTYYAQKFQGRVTMTRDTSTSTVYMELSSLRSEDTAVYYCARGVYYLDYWGQGTLVTVSS
VL: DIQMTQSPSSLSASVGDRVTITCRASQGVRTNLAWFQQKPGKAPKSLIYAASSLQSGVPSRFSGSGSGTDFTLTISSLQPEDFATYYCQQYNAYPRTFGGGTKVEIK
binding [3]: binds | binding [12]: binds | binding [8]: binds

B13: E-E10 (antibody, IgG1, V domains shown)
VH: QVQLVQSGAEVKKPGASVKVSCKASGYTFTDYYMNWVRQAPGQGLEWMGRIYPGSGNTYYAQKFQGRVTMTRDTSTSTVYMELSSLRSEDTAVYYCARGVWYFDYWGQGTLVTVSS
VL: DIQMTQSPSSLSASVGDRVTITCRASQGVRTNVAWFQQKPGKAPKSLIYSASSLQSGVPSRFSGSGSGTDFTLTISSLQPEDFATYYCQQYNSYPRTFGGGTKVEIK
binding [3]: binds | binding [8]: binds

B14: F-F2 (antibody, IgG1, V domains shown)
VH: QVQLVQSGAEVKKPGASVKVSCKASGYTFTDYYMNWVRQAPGQGLEWMGRIYPGSGNTYYAQKFQGRVTMTRDTSTSTVYMELSSLRSEDTAVYYCARGVYYQDYWGQGTLVTVSS
VL: DIQMTQSPSSLSASVGDRVTITCRASQGVRTNVAWFQQKPGKAPKSLIYAASSRQSGVPSRFSGSGSGTDFTLTISSLQPEDFATYYCQQYNSYPRTFGGGTKVEIK
binding [3]: binds | binding [8]: binds

B15: C-B12 (antibody, IgG1, V domains shown)
VH: QVQLVQSGAEVKKPGASVKVSCKASGYTFTDYYMNWVRQAPGQGLEWMGRIYPGSGNTYYAQKFQGRVTMTRDTSTSTVYMELSSLRSEDTAVYYCARGVYEFDYWGQGTLVTVSS
VL: DIQMTQSPSSLSASVGDRVTITCRASQGVRNNLAWFQQKPGKAPKSLIYAASYRQSGVPSRFSGSGSGTDFTLTISSLQPEDFATYYCQQYNSYPRTFGGGTKVEIK
binding [3]: binds | binding [8]: binds

B16: C-A7 (antibody, IgG1, V domains shown)
VH: QVQLVQSGAEVKKPGASVKVSCKASGYTFTDYYMNWVRQAPGQGLEWIGRIYPGSGNTYYAQKFQGRVTMTRDTSTSTVYMELSSLRSEDTAVYYCARGVYYFDSWGQGTLVTVSS
VL: DIQMTQSPSSLSASVGDRVTITCRASQGVRNNVAWFQQKPGKAPKSLIYYASSLQSGVPSRFSGSGSGTDFTLTISSLQPEDFATYYCQQYNSYPRTFGGGTKVEIK
binding [3]: binds | binding [8]: binds

B17: D-A10 (antibody, IgG1, V domains shown)
VH: QVQLVQSGAEVKKPGASVKVSCKASGYTFTDYYMNWVRQAPGQGLEWMGRIYPGSGNTYYAQKFQGRVTMTRDTSTSTVYMELSSLRSEDTAVYYCARGVYYFDTWGQGTLVTVSS
VL: DIQMTQSPSSLSASVGDRVTITCRASQGVRTNLAWFQQKPGKAPKSLIYAASSRQSGVPSRFSGSGSGTDFTLTISSLQPEDFATYYCQQYNSYPRTFGGGTKVEIK
binding [3]: binds | binding [8]: binds
